The assay concerns the target T1, VAMP7 (mouse (endogenous in mouse brain)), P70280.
T1 chain: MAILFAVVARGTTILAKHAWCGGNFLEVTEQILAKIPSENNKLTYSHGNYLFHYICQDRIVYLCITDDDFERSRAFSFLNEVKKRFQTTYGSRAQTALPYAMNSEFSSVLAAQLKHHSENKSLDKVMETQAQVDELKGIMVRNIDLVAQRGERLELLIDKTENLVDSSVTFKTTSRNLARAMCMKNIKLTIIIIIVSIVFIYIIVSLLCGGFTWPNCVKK
Nature of the assay: co-IP. To be noted: remark: other sources report otherwise.

Results are given in words; binding and its absence hold for the method and conditions named. Binding seen in cells or lysates may run through a third protein. Some binding calls cover weakened binding; strength is not graded here.

B1: SNAP23, O09044 1-210 (protein)
chain: MDNLSPEEVQLRAHQVTDESLESTRRILGLAIESQDAGIKTITMLDEQGEQLNRIEEGMDQINKDMREAEKTLTELNKCCGLCICPCNRTKNFESGKNYKATWGDGGDNSPSNVVSKQPSRITNGQPQQTTGAASGGYIKRITNDAREDEMEENLTQVGSILGNLKNMALDMGNEIDAQNQQIQKITEKADTNKNRIDIANTRAKKLIDS
For B1, the binding entry is listed as “binds”.
